No constants are given. Whether binding was seen depends on the method and setting. Binding seen in cells or lysates may run through a third protein. Some entries that bind do so weakly or less than the wild type. For some assays here: Sequences can lack the tags named with a protein.

Sequences of proteins named here, by UniProt entry; tags and fusion partners are left off. A change or cut given only in a name is not applied to a line headed by its entry. Residues count along the entry.
UniProt Q9EPL4, whole entry, looked up, stated change not applied: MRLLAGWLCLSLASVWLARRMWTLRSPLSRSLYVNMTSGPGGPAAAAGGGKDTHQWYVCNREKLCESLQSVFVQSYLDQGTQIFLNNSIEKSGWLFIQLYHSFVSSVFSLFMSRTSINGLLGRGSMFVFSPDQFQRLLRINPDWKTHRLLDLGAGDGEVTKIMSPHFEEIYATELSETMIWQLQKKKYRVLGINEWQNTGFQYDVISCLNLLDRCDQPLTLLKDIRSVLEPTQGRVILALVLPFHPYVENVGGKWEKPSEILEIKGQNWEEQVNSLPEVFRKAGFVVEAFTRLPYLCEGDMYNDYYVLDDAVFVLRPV
UniProt Q9EPL4, 19-318: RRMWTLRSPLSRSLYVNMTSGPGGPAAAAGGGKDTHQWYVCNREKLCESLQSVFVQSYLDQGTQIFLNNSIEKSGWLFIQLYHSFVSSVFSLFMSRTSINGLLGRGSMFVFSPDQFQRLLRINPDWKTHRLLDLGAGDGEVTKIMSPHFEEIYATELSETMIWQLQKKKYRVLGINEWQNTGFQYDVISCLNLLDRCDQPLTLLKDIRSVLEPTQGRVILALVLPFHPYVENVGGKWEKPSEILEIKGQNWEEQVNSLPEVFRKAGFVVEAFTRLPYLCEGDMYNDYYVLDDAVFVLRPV

Test [1] concerns the target METTL9-FLAG wild type (mouse) (mouse) (UniProt Q9EPL4). As to the kind of experiment: co-IP.
Test [2] has as its target METTL9-FLAG 2NA mutant (N35A/N86A, mouse) (mouse) (UniProt Q9EPL4). Put plainly: co-IP.

B1: calnexin (protein, UniProt P27824 21-592)
chain: HDGHDDDVIDIEDDLDDVIEEVEDSKPDTTAPPSSPKVTYKAPVPTGEVYFADSFDRGTLSGWILSKAKKDDTDDEIAKYDGKWEVEEMKESKLPGDKGLVLMSRAKHHAISAKLNKPFLFDTKPLIVQYEVNFQNGIECGGAYVKLLSKTPELNLDQFHDKTPYTIMFGPDKCGEDYKLHFIFRHKNPKTGIYEEKHAKRPDADLKTYFTDKKTHLYTLILNPDNSFEILVDQSVVNSGNLLNDMTPPVNPSREIEDPEDRKPEDWDERPKIPDPEAVKPDDWDEDAPAKIPDEEATKPEGWLDDEPEYVPDPDAEKPEDWDEDMDGEWEAPQIANPRCESAPGCGVWQRPVIDNPNYKGKWKPPMIDNPSYQGIWKPRKIPNPDFFEDLEPFRMTPFSAIGLELWSMTSDIFFDNFIICADRRIVDDWANDGWGLKKAADGAAEPGVVGQMIEAAEERPWLWVVYILTVALPVFLVILFCCSGKKQTSGMEYKKTDAPQPDVKEEEEEKEEEKDKGDEEEEGEEKLEEKQKSDAEEDGGTVSQEEEDRKPKAEEDEILNRSPRNRKPRRE
Take B1: the binding entry in test [1] is given as “binds”.

B2: METTL9-FLAG 2NA mutant (N35A/N86A, mouse) (enzyme, UniProt Q9EPL4 19-318)
chain: RRMWTLRSPLSRSLYVAMTSGPGGPAAAAGGGKDTHQWYVCNREKLCESLQSVFVQSYLDQGTQIFLANSIEKSGWLFIQLYHSFVSSVFSLFMSRTSINGLLGRGSMFVFSPDQFQRLLRINPDWKTHRLLDLGAGDGEVTKIMSPHFEEIYATELSETMIWQLQKKKYRVLGINEWQNTGFQYDVISCLNLLDRCDQPLTLLKDIRSVLEPTQGRVILALVLPFHPYVENVGGKWEKPSEILEIKGQNWEEQVNSLPEVFRKAGFVVEAFTRLPYLCEGDMYNDYYVLDDAVFVLRPV
B2: the binding result in test [2] is listed as “binds”.

Values taken from doi:10.64898/2025.12.23.696137.
